US20090265797A1 (PIERRE FABRE MEDICAMENT, published 2009)
These are yes or no findings as the source states them, for the method shown. Some results given as binding are weak or reduced against the parent protein; the word gives no strength.

Amino acid sequences for entries named in this document (tags omitted). Residues count along the entry.
UniProt P08069, residues 31-1367: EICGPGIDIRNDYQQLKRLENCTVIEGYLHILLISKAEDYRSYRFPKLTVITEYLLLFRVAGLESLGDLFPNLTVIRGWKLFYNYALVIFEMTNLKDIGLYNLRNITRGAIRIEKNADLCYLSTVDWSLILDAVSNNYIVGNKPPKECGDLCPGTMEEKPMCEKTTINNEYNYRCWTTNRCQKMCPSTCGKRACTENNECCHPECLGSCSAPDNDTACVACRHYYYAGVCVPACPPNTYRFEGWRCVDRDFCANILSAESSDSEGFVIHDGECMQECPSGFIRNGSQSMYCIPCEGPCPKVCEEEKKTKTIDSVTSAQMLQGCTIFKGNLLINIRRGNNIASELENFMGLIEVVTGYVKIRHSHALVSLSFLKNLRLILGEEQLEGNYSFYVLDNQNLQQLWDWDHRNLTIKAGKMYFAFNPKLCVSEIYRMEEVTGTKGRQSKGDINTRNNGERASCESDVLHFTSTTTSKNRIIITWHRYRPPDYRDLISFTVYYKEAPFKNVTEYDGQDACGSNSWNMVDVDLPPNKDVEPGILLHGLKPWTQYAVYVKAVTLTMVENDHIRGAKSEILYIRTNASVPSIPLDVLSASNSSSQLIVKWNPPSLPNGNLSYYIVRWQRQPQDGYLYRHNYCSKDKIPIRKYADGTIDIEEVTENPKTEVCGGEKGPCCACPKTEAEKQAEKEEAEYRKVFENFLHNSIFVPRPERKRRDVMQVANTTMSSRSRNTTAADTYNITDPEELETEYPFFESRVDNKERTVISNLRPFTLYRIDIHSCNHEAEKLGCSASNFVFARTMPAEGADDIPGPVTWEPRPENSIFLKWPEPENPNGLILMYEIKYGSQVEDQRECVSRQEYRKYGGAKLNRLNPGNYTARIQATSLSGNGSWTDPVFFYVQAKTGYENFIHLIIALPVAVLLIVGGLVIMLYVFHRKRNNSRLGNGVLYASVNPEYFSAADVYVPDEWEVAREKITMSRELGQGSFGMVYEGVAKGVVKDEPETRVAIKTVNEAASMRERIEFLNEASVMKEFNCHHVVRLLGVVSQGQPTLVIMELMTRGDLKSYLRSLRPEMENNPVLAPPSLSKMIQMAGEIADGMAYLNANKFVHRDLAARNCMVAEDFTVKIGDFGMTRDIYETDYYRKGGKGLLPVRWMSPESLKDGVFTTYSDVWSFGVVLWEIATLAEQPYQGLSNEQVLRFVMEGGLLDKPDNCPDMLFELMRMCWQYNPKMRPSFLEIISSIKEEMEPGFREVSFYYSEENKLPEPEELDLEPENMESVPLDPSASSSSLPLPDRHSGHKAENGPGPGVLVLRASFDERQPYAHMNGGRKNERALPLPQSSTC
UniProt P01344, residues 25-91: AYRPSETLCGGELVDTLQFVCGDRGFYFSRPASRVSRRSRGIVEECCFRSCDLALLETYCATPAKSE

Columns and labels:
[1] = biological target: human IGF-IR (hIGF-IR) from membrane lysate of NIH 3T3 cells stably transfected with the human IGF-IR cDNA, immobilized (human) (UniProt P08069); assay: competition of 100 pM [125I]-IGF1 binding to immobilized hIGF-IR
[2] = biological target: human IGF-IR (hIGF-IR) from membrane lysate of NIH 3T3 cells stably transfected with the human IGF-IR cDNA, immobilized (human) (UniProt P08069); assay: radioligand competition: unlabeled IGF2 varied against 100 pM [125I]-IGF1 on hIGF-IR captured by mAb 17-69 on Protein A FlashPlate

binding [1]: binds
binding [2]: binds
Substance: IGF2 (from UniProt P01344 25-91) (ligand)
